Data: the supplement of paper PMC6143611
Counter-ions that a name gives are not always drawn. ± gives the uncertainty stated by the source. Some of the results follow. Part of the spread comes from offsets between plates or batches.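 A heat-shock-induced fluorescent stripe was set in larval rod outer segments at 6 dpf. Shedding distance ran from stripe to outer segment tip, measured by confocal stacks in about three fish per compound. Controls: 0.2% DMSO vehicle. Flagged compounds showed ≥20% change from same-week control, p < 0.001 (Dunnett test on mixed-effects models).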

tested on: Danio rerio larva rod photoreceptor outer segment; assay: rod outer segment growth distance Dg, difference from same-week DMSO control mean; higher = more outer segment growth; details: 20 µM; treatment time: 4 days (6-10 dpf)

Compound	rod outer segment growth distance Dg
CN[C@@H](C)C(=O)N[C@H](C(=O)N1CCC[C@H]1C(=O)Nc1snnc1-c1ccccc1)C1CCCCC1	-0.25 ± 0.17 um
O=C1NC(=O)C(c2ccccc2)(c2ccccc2)N1 [Phenytoin]	-0.3 ± 0.22 um
CC(C)CN(C[C@@H](O)[C@H](Cc1ccccc1)NC(=O)O[C@H]1CCOC1)S(=O)(=O)c1ccc(N)cc1 [Amprenavir]	-0.54 ± 0.3 um
CN(Cc1cc(Br)cc(Br)c1N)C1CCCCC1 [Bromhexine HCl]	0.04 ± 0.77 um
C[C@]12CCC(=O)C=C1CC[C@@H]1[C@@H]2[C@@H](O)C[C@@]2(C)[C@H]1CC[C@]2(O)C(=O)CO [Hydrocortisone]	0.24 ± 0.29 um
CCC(=O)O[C@]1(C(=O)SCF)[C@H](C)C[C@H]2[C@@H]3C[C@H](F)C4=CC(=O)C=C[C@]4(C)[C@@]3(F)[C@@H](O)C[C@@]21C [Fluticasone propionate]	-1.46 ± 0.23 um
CNC(=O)c1ccc(-c2cnc3ncc(Cc4ccc5ncccc5c4)n3n2)cc1F	-0.78 ± 0.18 um
CCCCc1nc(Cl)c(CO)n1Cc1ccc(-c2ccccc2-c2nnn[nH]2)cc1 [Losartan Potassium (DuP 753)]	-1.49 ± 0.29 um
C[C@@H]1CC(=O)NN=C1c1ccc(NN=C(C#N)C#N)cc1 [Levosimendan]	-0.2 ± 0.25 um
O=C(CCc1ccc(O)cc1)c1c(O)cc(O)cc1O[C@@H]1O[C@H](CO)[C@@H](O)[C@H](O)[C@H]1O [Phlorizin]	-1.86 ± 1.9 um
Cc1nc(NC(=O)N2CCC[C@H]2C(N)=O)sc1-c1csc(C(C)(C)C)n1	-0.21 ± 0.2 um
C[C@@H]1C[C@H]2[C@@H]3CCC4=CC(=O)C=C[C@]4(C)[C@@]3(Cl)[C@@H](O)C[C@]2(C)[C@@]1(OC(=O)c1ccco1)C(=O)CCl [Mometasone furoate]	-0.48 ± 0.31 um
C#CCC(Cc1cnc2nc(N)nc(N)c2n1)c1ccc(C(=O)N[C@@H](CCC(=O)O)C(=O)O)cc1 (some centres undefined) [Pralatrexate]	-0.27 ± 0.17 um
CN1CC(=O)N2[C@H](c3ccc4c(c3)OCO4)c3[nH]c4ccccc4c3C[C@@H]2C1=O [Tadalafil]	-0.08 ± 0.18 um
COc1ccc([C@H]2CNC(=O)C2)cc1OC1CCCC1 [S- (+)-Rolipram]	0.3 ± 0.19 um
COc1ccc(-c2ccc3c(N4CCOCC4)nc(N4C[C@@H](C)O[C@@H](C)C4)nc3n2)cc1CO	0.12 ± 0.23 um
COc1ccc2c(c1)c(C1=C(c3c[nH]c4ccccc34)C(=O)NC1=O)cn2CCCN(C)C	-0.99 ± 0.2 um

Some of the entries so far, bar-delimited.
Compound | rod outer segment growth distance Dg
CNC(=O)c1ccc(-c2cnc3ncc(Cc4ccc5ncccc5c4)n3n2)cc1F | -0.78 ± 0.18 um
CCCCc1nc(Cl)c(CO)n1Cc1ccc(-c2ccccc2-c2nnn[nH]2)cc1 [Losartan Potassium (DuP 753)] | -1.49 ± 0.29 um

(further entries)

Compound	rod outer segment growth distance Dg
O=C(O)C(=O)O.[NH-][C@@H]1CCCC[C@H]1[NH-].[Pt+2] [Oxaliplatin]	0.33 ± 0.18 um
O=C(O)C(Cc1c[nH]c2ccccc12)N1C(=O)c2ccccc2C1=O (centres undefined)	0 ± 0.16 um
CCOc1nc2cccc(C(=O)O)c2n1Cc1ccc(-c2ccccc2-c2noc(=O)[nH]2)cc1 [Azilsartan]	1.7 ± 0.15 um
CC1(C)CC(=O)c2c(C(F)(F)F)nn(-c3ccc(C(N)=O)c(N[C@H]4CC[C@H](O)CC4)c3)c2C1	0.02 ± 0.16 um
CC(C)(OCc1nn(Cc2ccccc2)c2ccccc12)C(=O)O [Bindarit]	0.03 ± 0.17 um
CC(C)(C)[N+]([O-])=Cc1ccc(S(=O)(=O)O)cc1S(=O)(=O)O	1.11 ± 0.23 um
CCn1cc(-c2ccnc3[nH]c(-c4cccc(CN(C)C)c4)cc23)c(-c2ccc(NC(=O)N(C)C)cc2)n1	-0.61 ± 0.17 um
CC1(C)CNc2cc(NC(=O)c3cccnc3NCc3ccncc3)ccc21 [Motesanib Diphosphate (AMG-706)]	-0.92 ± 0.2 um
CC(=O)OCC[N+](C)(C)C [Acetylcholine Chloride]	-0.19 ± 0.21 um
NC(=O)c1cnccn1 [Pyrazinamide]	-0.32 ± 0.23 um
Nc1ccn([C@@H]2O[C@H](CO)[C@@H](O)[C@@H]2O)c(=O)n1 [Cytarabine]	-0.6 ± 0.26 um
CCn1c(=O)c2c(nc(/C=C/c3ccc(OC)c(OC)c3)n2C)n(CC)c1=O [Istradefylline]	-0.97 ± 0.19 um
Cc1[nH]c(/C=C2\C(=O)Nc3ccc(S(=O)(=O)N(C)c4cccc(Cl)c4)cc32)c(C)c1C(=O)N1CCN(C)CC1	-1.76 ± 0.17 um
Cc1cc(NC(=O)Nc2ccc(N(C)C)cc2)c2cc(F)cc(F)c2n1	-0.49 ± 0.15 um
CCCCC[C@H](O)/C=C/[C@H]1[C@H](O)CC(=O)[C@@H]1CCCCCCC(=O)O [Alprostadil]	-1.06 ± 0.18 um
CN1C(C(=O)Nc2ccccn2)=C(O)c2ccccc2S1(=O)=O [Piroxicam]	1.19 ± 0.3 um
CCCCCCCCCCC[C@@H](C[C@@H]1OC(=O)[C@H]1CCCCCC)OC(=O)[C@H](CC(C)C)NC=O [Orlistat]	-0.68 ± 0.28 um
